The values below come from PMC10117100.

Results are given in words; binding and its absence hold for the method and conditions named. In cells and extracts the contact can be indirect. A yes stands for co-enrichment or nearness to the bait. Other partners may have been found.

The target in this test is T1, ΔNp73α-TAP (human) (UniProt O15350).
T1 sequence: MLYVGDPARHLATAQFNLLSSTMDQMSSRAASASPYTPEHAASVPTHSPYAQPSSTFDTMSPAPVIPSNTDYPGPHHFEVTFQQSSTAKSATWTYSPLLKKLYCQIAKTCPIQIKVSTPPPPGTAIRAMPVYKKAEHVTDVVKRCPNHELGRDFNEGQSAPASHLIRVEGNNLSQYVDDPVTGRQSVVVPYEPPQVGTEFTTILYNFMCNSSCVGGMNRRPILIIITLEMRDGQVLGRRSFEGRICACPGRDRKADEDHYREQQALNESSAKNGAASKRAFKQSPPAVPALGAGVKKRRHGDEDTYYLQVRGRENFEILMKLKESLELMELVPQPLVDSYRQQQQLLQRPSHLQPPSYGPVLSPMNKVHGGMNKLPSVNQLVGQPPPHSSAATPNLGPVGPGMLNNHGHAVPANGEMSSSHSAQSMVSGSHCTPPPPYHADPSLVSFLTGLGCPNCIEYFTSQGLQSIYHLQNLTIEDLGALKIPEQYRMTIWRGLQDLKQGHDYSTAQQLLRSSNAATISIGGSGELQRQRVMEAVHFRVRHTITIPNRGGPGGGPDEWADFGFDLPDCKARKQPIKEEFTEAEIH
Briefly: affinity purification with mass spectrometry; tandem affinity purification (IgG Sepharose, TEV cleavage, calmodulin Sepharose) of ΔNp73α-TAP from the nuclear soluble fraction of 38HK; LC-MS of elution fraction 2; TAP tag alone as control; hits enriched more than 10-fold.

B1: endogenous p63 (38HK) (protein, UniProt Q9H3D4 1-680)
chain: MNFETSRCATLQYCPDPYIQRFVETPAHFSWKESYYRSTMSQSTQTNEFLSPEVFQHIWDFLEQPICSVQPIDLNFVDEPSEDGATNKIEISMDCIRMQDSDLSDPMWPQYTNLGLLNSMDQQIQNGSSSTSPYNTDHAQNSVTAPSPYAQPSSTFDALSPSPAIPSNTDYPGPHSFDVSFQQSSTAKSATWTYSTELKKLYCQIAKTCPIQIKVMTPPPQGAVIRAMPVYKKAEHVTEVVKRCPNHELSREFNEGQIAPPSHLIRVEGNSHAQYVEDPITGRQSVLVPYEPPQVGTEFTTVLYNFMCNSSCVGGMNRRPILIIVTLETRDGQVLGRRCFEARICACPGRDRKADEDSIRKQQVSDSTKNGDGTKRPFRQNTHGIQMTSIKKRRSPDDELLYLPVRGRETYEMLLKIKESLELMQYLPQHTIETYRQQQQQQHQHLLQKQTSIQSPSSYGNSSPPLNKMNSMNKLPSVSQLINPQQRNALTPTTIPDGMGANIPMMGTHMPMAGDMNGLSPTQALPPPLSMPSTSHCTPPPPYPTDCSIVSFLARLGCSSCLDYFTTQGLTTIYQIEHYSMDDLASLKIPEQFRHAIWKGILDHRQLHEFSSPSHLLRTPSSASTVSVGSSETRGERVIDAVRFTLRQTISFPPRDEWNDFNFDMDARRNKQQRIKEEGE
B1: the binding entry is on record as “binds”.
